The values below come from patent US20150126534A1, “ENZYME AND RECEPTOR MODULATION” (Chroma Therapeutics Ltd, priority 2005, published 2015).

The assay has as its system HCT116 (non-monocytic cell line). The assay is described as follows: Cell proliferation inhibition assay (WST-1), HCT116. Particulars: Homo sapiens, HCT-116, read-out: Cell proliferation IC50 nM (HCT116). Type of assay: cell-based. Here is the method:
Following 24 h of growth cells were treated with compound. Plates were then re-incubated for a further 72-96 h before a WST-1 cell viability assay was conducted according to the suppliers (Roche Applied Science) instructions.
Data were expressed as a percentage inhibition of the control, measured in the absence of inhibitor, as follows: —
where S^i is the signal in the presence of inhibitor and S^o is the signal in the presence of DMSO.
Dose response curves were generated from 8 concentrations (top final concentration 10 μM, with 3-fold dilutions), using 6 replicates.
(In general: Tetrazolium dyes change colour on reduction, which living cells bring about.)

Regarding `O=C(CCCCCCC(=O)Nc1ccccc1)NO` [Compound 7, Suberoylanilide hydroxamic acid, reference compound], the IC50 is 700 nM.
